Data as given in article PMC4059234, “Edc3 Function in Yeast and Mammals Is Modulated by Interaction with NAD-Related Compounds” (G3: Genes|Genomes|Genetics, 2014).
Residue numbers refer to the chain shown, from its start. These are yes or no findings as the source states them, for the method shown. In cells and extracts the contact can be indirect. Some results given as binding are weak or reduced against the parent protein; the word gives no strength. Where a sequence is shown, tags or fusion partners need not be part of it.

How the values were obtained:
[1] = target: T1, Flag-hEdc3-D443V-RFP (human) (UniProt Q96F86); test: co-IP; Flag-M2-agarose precipitation of Flag-hEdc3-RFP (WT or D443V) from HeLa cells transfected with 25 ug plasmid, about 20 hr after transfection, treated with 0.5 mM sodium arsenite for 1 hr; endogenous Edc3, Dcp1a and DDX6 detected by blot
T1 sequence: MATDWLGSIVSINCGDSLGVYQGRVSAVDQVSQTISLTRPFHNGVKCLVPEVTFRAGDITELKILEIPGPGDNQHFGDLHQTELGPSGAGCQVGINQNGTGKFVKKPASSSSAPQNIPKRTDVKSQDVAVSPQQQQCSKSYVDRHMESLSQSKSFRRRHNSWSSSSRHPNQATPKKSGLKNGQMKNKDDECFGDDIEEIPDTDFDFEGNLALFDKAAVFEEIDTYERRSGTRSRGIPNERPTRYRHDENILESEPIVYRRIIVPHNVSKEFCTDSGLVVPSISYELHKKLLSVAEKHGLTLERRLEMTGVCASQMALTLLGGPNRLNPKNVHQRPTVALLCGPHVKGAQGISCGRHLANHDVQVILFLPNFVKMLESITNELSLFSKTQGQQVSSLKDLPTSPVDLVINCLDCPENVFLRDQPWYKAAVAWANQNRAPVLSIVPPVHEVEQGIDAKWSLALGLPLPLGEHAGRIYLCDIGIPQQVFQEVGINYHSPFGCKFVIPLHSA

Flag-hEdc3-RFP (human) = target: T2, Flag-hEdc3-RFP (human) (UniProt Q96F86); test: as above
T2 sequence: T1 sequence with V443D

B1: endogenous Edc3 (protein, UniProt Q96F86 1-508)
chain: T1 sequence with V443D
B1 was tested, and the binding [1] was “binds” and the binding (Flag-hEdc3-RFP (human)) was “binds”.
